PubChem BioAssay AID2685 (National Center for Advancing Translational Sciences (NCATS), 2010)
The other results are listed elsewhere or left out. Further columns of the screen follow, without active or inactive calls. Most of these compounds were active or inconclusive in the main read-out, so they are no random draw. Words in brackets tell the shape of the fitted curve; partial curves, single points and poor fits give uncertain potencies.

Assay: qHTS Assay for Lipid Storage Modulators in Drosophila S3 Cells;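 as to cell number change: cells counted by Cell Tracker Red CMTPX staining in the red channel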
Details: BODIPY lipid droplet fluorescence, 18-24 h; for cell number change: measured here: cell count max response, cells fed with added oleic acid
Outline: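 Drosophila S3 cells loaded with oleic acid (400 uM, as added) and compounds at several concentrations; lipid droplets imaged by 488-nm laser-scanning cytometry, 500–530 nm intensity and object ratio to cell channel. Percent activity normalized to 20 uM Triacsin C.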

[1] = measured here: lipid fluorescence (Fed channel) AC50, cells fed with added oleic acid
[2] = measured here: cell number channel AC50, cells fed with added oleic acid

Row | Compound | cell number change | AC50 [1] | AC50 [2]
1 | Cc1occc1C(=O)O/N=C(\N)c1ccccc1 | 9.03% | 1.03 µM [rising, full curve] | 
2 | Oc1ccc(/C=N/N=C(c2ccccc2)c2ccccc2)c(O)c1O | -47% | 16.4 µM [falling, single point] | 20.6 µM [falling, single point]
3 | CCN(CC)CCNC(=O)CCc1c(C)nc2c(c(C)nn2-c2ccc(C)cc2)c1C | 9.22% | 0.651 µM [falling, partial curve, poor fit] | 
4 | CCC(C)(C)C(=O)Nc1ccc(C(N)=O)cc1 | -36.3% | 29.1 µM [falling, single point] | 16.4 µM [falling, single point]
5 | OCC(C#CCN1CCCCC1)NCc1ccccc1 (stereo not drawn) | -12.2% | 29.1 µM [falling, partial curve] | 0.259 µM [falling, partial curve]
6 | CCCN1C(=O)c2cc(C(=O)Nc3cccc(C(C)=O)c3)ccc2C1Nc1cccc(C(C)=O)c1 (stereo not drawn) | 2.74% | 3.26 µM [rising, single point] | 
7 | Cc1cc(NC(=O)CCNS(=O)(=O)c2cc(Br)cnc2N)ccc1Br | -16.5% |  | 0.82 µM [rising, full curve, poor fit]
8 | O=C(CCCNC(=O)c1ccc(Cl)cc1)Nc1ccc(Br)cc1 | 52.6% |  | 25.9 µM [rising, partial curve, poor fit]
9 | CN(CCOc1ccccc1)C(=O)C1CCC(=O)N(CCc2ccc(Cl)cc2)C1 (stereo not drawn) | -3.47% | 0.164 µM [falling, full curve, poor fit] | 
10 | CCOc1cc(/C=N\Nc2nc(Nc3ccccc3)nc(N3CCOCC3)n2)ccc1OC(=O)c1ccco1 |  |  | 0.00517 µM [rising, full curve, poor fit]
11 | COc1ccc(-c2nc(CSCC(=O)N3CCc4ccccc43)c(C)o2)cc1OC | 16.4% | 23.1 µM [rising, single point] | 
12 | CC(=O)C(/C=N/c1ncc(C(F)(F)F)cc1Cl)=C(\C)O | -25.9% |  | 
13 | CC(NC(=O)c1ccc([N+](=O)[O-])cc1Cl)C1CC2CCC1C2 (stereo not drawn) | 23.9% | 11.6 µM [falling, partial curve] | 
14 | Fc1ccc(COc2ccccc2CNc2nn[nH]n2)cc1 | 7.49% |  | 
15 | CC(C)C(C(=O)Nc1ccc(S(N)(=O)=O)cc1)N1C(=O)c2ccccc2C1=O (stereo not drawn) | 34.9% |  | 
16 | Cc1cccc(NC(=S)NC(=O)c2oc3ccccc3c2C)n1 | -3.17% |  | 0.146 µM [rising, full curve, poor fit]
17 | O=C(NCc1ccc(Cl)cc1)C1CCN(S(=O)(=O)c2cccc3nonc23)CC1 | 224% |  | 29.1 µM [rising, single point]
18 | O=c1cc(CSc2ccc(Cl)cc2)nc(-c2ccncc2)[nH]1 | 13.2% | 4.61 µM [rising, full curve, poor fit] | 
19 | CC(C)Nc1nc(Oc2ccc(Cl)cc2)cc(C(F)(F)F)n1 | 2.24% | 3.26 µM [rising, partial curve] | 
20 | CCN(CC)C(=S)SCC(=O)Nc1ncc2c(n1)CC(C)(C)CC2=O | 9.81% | 1.3 µM [rising, partial curve, poor fit] | 

Row | Compound | cell number change | AC50 [1] | AC50 [2]
21 | CCc1c(O)cc2n(c1=O)-c1ccc(Cl)cc1C2(C)C | -20.2% | 29.1 µM [falling, single point] | 
22 | COc1ccc(N2C(=O)c3ccccc3C2O)cc1 (stereo not drawn) | 16.4% |  | 6.51 µM [rising, single point]
23 | Cc1nc2ccc(C(=O)c3ccccc3)cc2[nH]1 | 250% | 8.2 µM [rising, partial curve] | 16.4 µM [rising, partial curve]
24 | CCOC(=O)N/N=C/c1c(F)cccc1F | 15.6% | 0.82 µM [rising, full curve, poor fit] | 
25 | Cc1cnc(C(=O)Nc2nnc(C3CC3)s2)cn1 | -0.621% | 6.51 µM [rising, single point] | 
26 | O=c1c2ccccc2ncn1Cc1ccc(Cl)c(Cl)c1 | -31.5% |  | 29.1 µM [falling, single point]
27 | Cc1ccc(S(=O)(=O)NC(CC(C)C)C(=O)N2CCCCCCC2)cc1 (stereo not drawn) | -18.5% |  | 
28 | COc1ccccc1C(=O)N1CCN(S(=O)(=O)c2ccccc2)CC1 | -6.06% | 0.291 µM [rising, partial curve, poor fit] | 
29 | CN1CCCCc2c1[nH]c1ccccc1c2=O | -0.811% | 2.91 µM [falling, partial curve, poor fit] | 
30 | COc1ccc(CC(=O)NC2CC(C)(C)NC(C)(C)C2)cc1OC | -13.5% | 0.00517 µM [falling, full curve, poor fit] | 
31 | COc1ccc2oc(C(=O)OCC(=O)NCc3ccc(OC)c(OC)c3)c(C)c2c1 | 15.5% |  | 
32 | COc1ccc(S(=O)(=O)Nc2cc(C(=O)NCCC(C)C)ccc2N2CCOCC2)cc1 | 19.1% | 0.291 µM [rising, full curve] | 0.146 µM [rising, full curve, poor fit]
33 | N=C1/C(=C\c2ccc(-c3ccc(C(=O)O)cc3)o2)C(=O)N=C2SC=C(c3ccccc3)N12 | 47.8% |  | 
34 | Cc1ccc(C(=O)NC(=S)/C=C2\N(C)c3ccccc3C2(C)C)cc1 | -58.2% | 20.6 µM [falling, single point] | 23.1 µM [falling, single point]
35 | Fc1nc(F)c(F)c(NCCCNc2c(F)c(F)nc(F)c2F)c1F | -1.41% | 0.146 µM [rising, full curve, poor fit] | 
36 | CC12CCC(C(=O)NCCN3CCCCC3)(CC1=O)C2(C)C (stereo not drawn) | -10.6% | 8.2 µM [falling, single point] | 
37 | Cc1nc(-c2ccccc2)nc(-c2ccccc2)n1 | -34.3% | 0.092 µM [falling, full curve, poor fit] | 18.4 µM [falling, single point]
38 | CC(C#N)(NC(=O)CN1CCN(S(=O)(=O)c2ccccc2Cl)CC1)C1CC1 (stereo not drawn) | 13.6% | 29.1 µM [rising, single point] | 
39 | COc1cccc(CN(C)C(c2ccccc2)c2ccccc2)c1OC | 7.98% | 29.1 µM [rising, single point] | 
40 | Cc1cccc(Nc2ncnc3onc(-c4cccc(Cl)c4)c23)c1C | -24.3% | 0.103 µM [falling, full curve, poor fit] | 

Row | Compound | cell number change | AC50 [1] | AC50 [2]
41 | CCOC(=O)C1=NN(c2ccccc2)C2(S1)SC(C(C)=O)=C(C)N2c1ccccc1 (stereo not drawn) | 20.2% |  | 
42 | Cc1c(C(=O)Nc2cc(F)cc(F)c2)cnn1-c1ccccc1 | -12.6% |  | 
43 | CCc1ccccc1N=C1SCC(=O)N1C | -13.5% | 0.0259 µM [falling, full curve, poor fit] | 
44 | O=C(/C=C/c1ccc(Cl)cc1)NC(=S)Nc1ccc(CN2CCOCC2)cc1 | -42.9% |  | 13 µM [falling, partial curve]
45 | O=C(c1ccc(NC2=NC3CS(=O)(=O)CC3S2)cc1)N1CCN(c2ccccc2)CC1 (stereo not drawn) | -15.9% | 0.0731 µM [falling, single point] | 
46 | O=C(CSc1ccc2nnc(-c3ccccn3)n2n1)Nc1cccc(F)c1 | -2.79% | 0.291 µM [rising, full curve, poor fit] | 
47 | CS(=O)(=O)N(Cc1ccc(C(=O)NC2CCCCC2O)cc1)c1ccccc1 (stereo not drawn) | -47.5% |  | 32.6 µM [falling, single point]
48 | CC(=O)c1c(N2CCCC2)[nH]c(-c2ccccc2)nc1=S | 87.5% | 2.31 µM [rising, partial curve] | 7.31 µM [rising, partial curve]
49 | O=C(CCc1nc2ccccc2c(=O)[nH]1)Nc1ccccc1N1CCCC1 | 32.2% | 1.16 µM [rising, full curve] | 1.3 µM [rising, full curve]
50 | COc1ccc(C(=O)n2nc(-c3ccc(OC)cc3)nc2N)cc1 | 5.5% | 18.4 µM [rising, single point] | 
51 | Cc1c(NC(=O)C(C)OC(=O)Cc2ccc(F)cc2)c(=O)n(-c2ccccc2)n1C (stereo not drawn) | -27.3% | 29.1 µM [falling, single point] | 
52 | N#Cc1ccccc1N1CCN(C(=O)c2ccc(NC(=O)c3ccc(Br)o3)cc2)CC1 | -39.8% | 4.11 µM [falling, single point] | 0.82 µM [falling, partial curve, poor fit]
53 | C#CCOCCOCCOCCNc1nc(N2CCN(C(=O)[C@H](CCCCN)n3cc(C(N)CO)nn3)CC2)nc(N2CCN(C(=O)[C@H](CCC(=O)O)n3cc(C(N)CC(C)C)nn3)CC2)n1 (stereo partly drawn) | 9.98% | 1.64 µM [rising, partial curve, poor fit] | 
54 | CCCn1c(C)cc(/C=C(\C#N)C(=O)OCC(=O)Nc2cccc(OC)c2)c1C |  | 6.51 µM [rising, partial curve] | 6.51 µM [rising, partial curve]
55 | O=C(O)c1ccccc1C(=O)NCCCCCCNC(=O)c1ccccc1C(=O)O | 16.7% |  | 
56 | O=C(COc1ccccc1Cl)NCc1ccncc1 | -7.91% |  | 
57 | CCOc1ccccc1NC(=S)N1CCC(c2nc3ccccc3o2)CC1 | 7.85% | 18.4 µM [falling, single point] | 
58 | COc1cc(/C=C2/SC(=NCc3ccccc3)N(Cc3ccccc3)C2=O)ccc1O | -53.6% | 6.51 µM [falling, single point] | 
59 | Cc1ccc(Cl)cc1NC(=O)CN1C(=O)NC2(CCCCCC2)C1=O | 3.42% |  | 
60 | O=C(NCCS(=O)(=O)NCC1CCCO1)c1ccccc1 (stereo not drawn) | -22.9% | 0.103 µM [rising, full curve, poor fit] | 

For convenience, part of the list above.
Row | Compound | cell number change | AC50 [1] | AC50 [2]
44 | O=C(/C=C/c1ccc(Cl)cc1)NC(=S)Nc1ccc(CN2CCOCC2)cc1 | -42.9% |  | 13 µM [falling, partial curve]
45 | O=C(c1ccc(NC2=NC3CS(=O)(=O)CC3S2)cc1)N1CCN(c2ccccc2)CC1 (stereo not drawn) | -15.9% | 0.0731 µM [falling, single point] | 
46 | O=C(CSc1ccc2nnc(-c3ccccn3)n2n1)Nc1cccc(F)c1 | -2.79% | 0.291 µM [rising, full curve, poor fit] | 
47 | CS(=O)(=O)N(Cc1ccc(C(=O)NC2CCCCC2O)cc1)c1ccccc1 (stereo not drawn) | -47.5% |  | 32.6 µM [falling, single point]
48 | CC(=O)c1c(N2CCCC2)[nH]c(-c2ccccc2)nc1=S | 87.5% | 2.31 µM [rising, partial curve] | 7.31 µM [rising, partial curve]
49 | O=C(CCc1nc2ccccc2c(=O)[nH]1)Nc1ccccc1N1CCCC1 | 32.2% | 1.16 µM [rising, full curve] | 1.3 µM [rising, full curve]
50 | COc1ccc(C(=O)n2nc(-c3ccc(OC)cc3)nc2N)cc1 | 5.5% | 18.4 µM [rising, single point] | 
51 | Cc1c(NC(=O)C(C)OC(=O)Cc2ccc(F)cc2)c(=O)n(-c2ccccc2)n1C (stereo not drawn) | -27.3% | 29.1 µM [falling, single point] | 
52 | N#Cc1ccccc1N1CCN(C(=O)c2ccc(NC(=O)c3ccc(Br)o3)cc2)CC1 | -39.8% | 4.11 µM [falling, single point] | 0.82 µM [falling, partial curve, poor fit]
53 | C#CCOCCOCCOCCNc1nc(N2CCN(C(=O)[C@H](CCCCN)n3cc(C(N)CO)nn3)CC2)nc(N2CCN(C(=O)[C@H](CCC(=O)O)n3cc(C(N)CC(C)C)nn3)CC2)n1 (stereo partly drawn) | 9.98% | 1.64 µM [rising, partial curve, poor fit] | 
54 | CCCn1c(C)cc(/C=C(\C#N)C(=O)OCC(=O)Nc2cccc(OC)c2)c1C |  | 6.51 µM [rising, partial curve] | 6.51 µM [rising, partial curve]
55 | O=C(O)c1ccccc1C(=O)NCCCCCCNC(=O)c1ccccc1C(=O)O | 16.7% |  | 
56 | O=C(COc1ccccc1Cl)NCc1ccncc1 | -7.91% |  | 
